From patent publication US8546530 (dated 2013)
The star is where a group is joined. Cbz = O=C(OCc1ccccc1)*; OtBu = CC(C)(C)O*

Test: general procedure: solution-phase peptide synthesis; pivaloyl chloride/pyridine; EDC.HCl/HOOBt; IBCF/NMM; HBTU/DIPEA (amine fragments)
Conditions: coupling step, HCl

Substance | step yield
Boc-Cys(Trt)-Ser(tBu)-Asn-Leu-Ser(tBu)-Thr-Cys(Trt) Val Leu Gly OH | at least 75% in weight
Fmoc-His(Trt)-Trp-Ser-Tyr-(D)Ser(tBu)-Leu-Arg-Pro-NHNHCONH2 | at least 70% in weight
Cbz-D(OtBu)AFIGL-OH | at least 70% in weight
Ac-(D)Nal-(D)Cph-(D)Pal-Ser-Tyr-(D)Cit-Leu-Arg-Pro-(D)Ala-NH2.HCl | at least 70% in weight
Z-Ser-Tyr-(D)Cit-Leu-Arg-Pro-(D)AlaNH2.HCl | at least 70% in weight
